The values are deposited in ChEMBL (CHEMBL3988442, “University of Dundee, Small-Polar-MMV Screening Library” (2021)).

The chains behind the UniProt entries cited, without tags or fusion partners. Residues count along the entry.
UniProt Q8IDJ8, 1-583: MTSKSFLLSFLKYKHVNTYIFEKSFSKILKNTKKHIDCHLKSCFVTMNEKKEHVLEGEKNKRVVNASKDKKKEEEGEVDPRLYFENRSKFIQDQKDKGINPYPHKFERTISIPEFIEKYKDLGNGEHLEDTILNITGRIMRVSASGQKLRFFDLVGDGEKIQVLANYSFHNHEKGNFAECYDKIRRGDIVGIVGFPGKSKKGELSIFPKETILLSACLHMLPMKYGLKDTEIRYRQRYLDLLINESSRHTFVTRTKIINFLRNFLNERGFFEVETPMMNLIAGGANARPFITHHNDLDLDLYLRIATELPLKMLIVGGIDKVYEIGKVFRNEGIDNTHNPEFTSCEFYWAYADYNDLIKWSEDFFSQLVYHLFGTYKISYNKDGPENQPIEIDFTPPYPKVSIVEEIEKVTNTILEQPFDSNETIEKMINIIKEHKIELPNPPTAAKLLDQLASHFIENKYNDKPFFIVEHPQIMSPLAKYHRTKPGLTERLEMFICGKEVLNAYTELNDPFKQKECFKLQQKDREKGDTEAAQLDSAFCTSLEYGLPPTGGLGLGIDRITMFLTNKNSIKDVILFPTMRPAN
UniProt I6X8D2, whole entry: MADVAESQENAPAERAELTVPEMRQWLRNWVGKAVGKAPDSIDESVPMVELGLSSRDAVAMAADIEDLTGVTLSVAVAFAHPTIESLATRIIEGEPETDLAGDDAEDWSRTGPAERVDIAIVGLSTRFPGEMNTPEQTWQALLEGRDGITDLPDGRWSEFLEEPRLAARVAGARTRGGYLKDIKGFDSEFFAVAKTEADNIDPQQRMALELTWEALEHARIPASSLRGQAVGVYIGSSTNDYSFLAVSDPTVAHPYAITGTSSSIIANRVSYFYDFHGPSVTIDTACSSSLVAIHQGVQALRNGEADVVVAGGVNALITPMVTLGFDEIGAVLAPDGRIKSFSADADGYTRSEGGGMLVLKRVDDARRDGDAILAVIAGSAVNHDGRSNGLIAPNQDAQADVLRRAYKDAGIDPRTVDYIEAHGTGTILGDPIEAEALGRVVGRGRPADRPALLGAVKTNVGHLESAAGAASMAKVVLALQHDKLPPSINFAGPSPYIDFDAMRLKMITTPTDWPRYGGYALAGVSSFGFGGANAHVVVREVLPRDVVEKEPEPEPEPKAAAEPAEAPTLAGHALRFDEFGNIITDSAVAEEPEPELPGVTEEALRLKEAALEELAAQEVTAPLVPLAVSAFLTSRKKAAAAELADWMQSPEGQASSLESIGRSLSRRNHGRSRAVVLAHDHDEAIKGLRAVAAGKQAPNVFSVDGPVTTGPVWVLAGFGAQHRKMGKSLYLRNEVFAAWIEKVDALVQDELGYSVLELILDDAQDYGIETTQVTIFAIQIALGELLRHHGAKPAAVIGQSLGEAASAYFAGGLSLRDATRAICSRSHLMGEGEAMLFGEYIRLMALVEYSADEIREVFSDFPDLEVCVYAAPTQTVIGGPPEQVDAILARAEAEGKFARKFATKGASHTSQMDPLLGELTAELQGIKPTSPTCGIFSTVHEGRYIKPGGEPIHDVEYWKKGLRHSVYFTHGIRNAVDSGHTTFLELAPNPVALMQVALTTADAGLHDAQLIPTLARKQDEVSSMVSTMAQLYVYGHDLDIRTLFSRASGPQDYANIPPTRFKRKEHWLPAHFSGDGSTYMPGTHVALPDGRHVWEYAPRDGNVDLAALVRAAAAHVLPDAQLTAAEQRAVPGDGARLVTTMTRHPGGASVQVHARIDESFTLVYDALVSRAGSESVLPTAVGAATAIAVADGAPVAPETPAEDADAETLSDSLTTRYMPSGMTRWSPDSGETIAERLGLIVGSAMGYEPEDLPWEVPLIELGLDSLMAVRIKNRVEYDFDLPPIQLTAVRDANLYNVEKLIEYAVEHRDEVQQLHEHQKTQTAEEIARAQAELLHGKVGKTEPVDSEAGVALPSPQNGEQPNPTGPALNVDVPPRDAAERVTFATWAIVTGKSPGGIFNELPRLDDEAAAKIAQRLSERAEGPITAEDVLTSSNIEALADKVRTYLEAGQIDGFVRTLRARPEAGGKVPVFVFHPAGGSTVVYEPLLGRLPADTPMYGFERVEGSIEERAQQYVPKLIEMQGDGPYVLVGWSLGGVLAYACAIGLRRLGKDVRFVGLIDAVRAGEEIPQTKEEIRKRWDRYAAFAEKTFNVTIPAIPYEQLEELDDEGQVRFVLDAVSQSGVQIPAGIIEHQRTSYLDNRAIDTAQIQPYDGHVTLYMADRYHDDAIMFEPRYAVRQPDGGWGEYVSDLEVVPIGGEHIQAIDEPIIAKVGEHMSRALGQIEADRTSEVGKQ
UniProt P9WFT3, whole entry: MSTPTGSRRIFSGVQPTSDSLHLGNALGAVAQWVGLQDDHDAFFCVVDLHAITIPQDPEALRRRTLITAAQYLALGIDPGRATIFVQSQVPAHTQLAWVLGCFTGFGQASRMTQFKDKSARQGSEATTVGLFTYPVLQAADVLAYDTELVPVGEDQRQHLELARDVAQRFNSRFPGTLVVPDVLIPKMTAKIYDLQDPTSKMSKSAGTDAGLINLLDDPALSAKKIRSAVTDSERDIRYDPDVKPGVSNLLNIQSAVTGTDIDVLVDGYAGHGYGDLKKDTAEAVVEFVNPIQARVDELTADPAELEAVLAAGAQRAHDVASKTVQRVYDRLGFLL
UniProt Q4DA54, 1-478: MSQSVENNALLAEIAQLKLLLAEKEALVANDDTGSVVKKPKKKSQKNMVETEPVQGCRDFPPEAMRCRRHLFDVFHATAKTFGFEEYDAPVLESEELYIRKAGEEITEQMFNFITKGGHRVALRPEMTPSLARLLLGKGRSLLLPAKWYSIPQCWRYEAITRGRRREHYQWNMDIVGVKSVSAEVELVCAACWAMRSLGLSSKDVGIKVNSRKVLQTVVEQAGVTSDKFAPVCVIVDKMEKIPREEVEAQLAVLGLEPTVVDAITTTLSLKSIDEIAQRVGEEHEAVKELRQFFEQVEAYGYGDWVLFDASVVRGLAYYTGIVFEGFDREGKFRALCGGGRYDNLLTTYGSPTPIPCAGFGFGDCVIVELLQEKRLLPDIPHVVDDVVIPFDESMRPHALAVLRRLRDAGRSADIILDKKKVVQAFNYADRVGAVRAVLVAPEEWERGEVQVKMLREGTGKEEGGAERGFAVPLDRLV

A: 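Enzyme assay of the cytosolic lysyl-tRNA synthetase in 384-well plates, read by luminescence. Target: Lysine-tRNA ligase, Plasmodium falciparum 3D7 (UniProt Q8IDJ8). Tested at 30 µM. Higher reads as stronger inhibition, judged from the few compounds that gave an IC50. Of about 69,000 compounds tested this way, about 49 (0.071%) reached 50% or more in at least one test.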
B: 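Polyketide synthase Pks13, Mycobacterium tuberculosis (UniProt I6X8D2). Enzyme assay of the thioesterase domain of polyketide synthase 13; the read-out is not stated. Concentration: 30 µM. The record gives no direction; the compounds picked for IC50 retests had high values, so higher reads as stronger inhibition. Size under these conditions: about 67,000 compounds, about 300 of them at 50% or above in at least one test.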
C: 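Tryptophan-tRNA ligase, Mycobacterium tuberculosis (UniProt P9WFT3). Enzyme assay of tryptophanyl-tRNA synthetase; the read-out is not stated. Tested at 10 µM. Higher most likely means stronger inhibition; the record gives no direction and few retests gave an IC50. Size under these conditions: about 65,000 compounds, about 64 of them at 50% or above in at least one test.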
D: 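Histidine-tRNA ligase, Trypanosoma cruzi CL Brener (UniProt Q4DA54). Enzyme assay of histidyl-tRNA synthetase; the read-out is not stated. Concentration: 30 µM. Higher reads as stronger inhibition (inferred: compounds with an IC50 in retests scored well above the rest). About 69,000 compounds were tested under these conditions; 0.045% (about 31) showed 50% or more at least once.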

Each number is a percent effect as filed. The record does not define 0% and 100%; most values in the screen are far below 50% and negative numbers occur (in some assays of this library far below -100). The compounds are a random part of those screened. A dash means the value is not listed here; it may have been measured.

| structure | A | B | C | D |
|---|---|---|---|---|
| `COCCNC(=O)NCCCOC1CCCc2ccccc21` (configuration not stated) | -1.46% | -29.17% | 0.5236% | 3.665% |
| `Cc1noc(CNc2ccccc2N2CCCCC2)n1` | -1.283% | -1.386% | -1.68% | -2.89% |
| `CCN(C(C)=O)c1nc(CN2CCN(c3nccs3)CC2)cs1` | -3.686% | -28.99% | -1.505% | -3.922% |
| `CCCc1nc(C(=O)N2CCN(C(=O)OC)CC2)cs1` | -3.461% | -1.307% | 3.841% | 6.627% |
| `c1cnc(NCc2nnn3c2CN(CC2CC2)CCC3)nc1` | 2.445% | -8.556% | - | 4.444% |
| `COc1cccc(-c2noc(C3CCN(CC4CCCCC4)C3)n2)c1` (configuration not stated) | 0.863% | 12.76% | - | 11.3% |
| `Cc1nc(COC[C@@]23CCC[C@@H]2CN(Cc2cnn(C)c2)C3)cs1` | 1.985% | -1.588% | - | 3.315% |
| `CCOC1CC2(CCN(C(=O)Cc3ccccn3)CC2)C1` | -5.251% | 58.57% | 8.422% | -3.093% |
| `O=C1NCCCCC1Sc1ccccc1F` (configuration not stated) | 6.589% | -6.804% | 0.6431% | 2.97% |
| `CCOc1ncnc2c1CCN(S(=O)(=O)CC)CC2` | -4.928% | 12.34% | 10.36% | 4.301% |
| `O=C(NC[C@@H]1C[C@@H]2CN(C(=O)CO)C[C@H]2O1)c1ccsc1` | -0.6617% | -53.3% | - | 2.21% |
| `CC(=O)N1CCCC(c2cccc(-n3ccnc3)n2)C1` (configuration not stated) | 3.364% | 2.719% | - | 12.09% |
| `CSCC(=O)N1C[C@@H](C)[C@](O)(C(C)C)C1` | -1.877% | -5.106% | -1.032% | 1.01% |
| `O=C(c1ccc2c(c1)CCC2)N1C[C@@H](CN2CCOCC2)[C@@H](CO)C1` | 0.7786% | -15.64% | 1.599% | 1.245% |
| `Cc1nn(-c2ccccc2)cc1C(=O)N1CCCC(n2ccnc2C)C1` (configuration not stated) | 1.724% | -7.034% | -4.47% | 9.04% |
| `Cn1c(CN2CCOCC2)nnc1C1CCCN(CC(N)=O)C1` (configuration not stated) | 1.248% | -5.913% | -0.729% | 6.122% |
| `Cc1ncnc2c1CCN(c1ccccn1)CC2` | 2.669% | -27.32% | -1.455% | 7.097% |
| `O=S(=O)(NCC1COc2ccccc2C1)N1CCCCCC1` (configuration not stated) | 3.566% | 3.187% | -1.356% | -3.139% |
| `Cc1nc(CN2CCCC(NCc3cccc(C(N)=O)c3)C2)no1` (configuration not stated) | 1.252% | -4.183% | -3.719% | 3.509% |
| `O=C1NC(c2ccccc2)=N[C@@]12CC[C@@H]1CN(CC3CC3)C[C@@H]12` | 1.618% | -28.06% | -0.4647% | 4.478% |
| `CNC(=O)CN1CCCC12CCN(C(=O)c1ccsc1)CC2` | 2.579% | -2.09% | 1.603% | 0.7519% |
| `CC(C)CN1CCNC(=O)C12CCN(C(=O)c1ccccn1)CC2` | 2.441% | 15.93% | 12.08% | 5.747% |
| `COCCNc1ccc(CC2CCCN(C3CCOCC3)C2)nn1` (configuration not stated) | 3.028% | -170% | -4.09% | 9.091% |
| `CS(=O)(=O)CCNCc1ccc(OCc2ccccn2)cc1` | 4.376% | -2.417% | -9.273% | 5.806% |
| `CCc1noc(C2CCCCN2C(=O)c2ccn(C3CCCC3)n2)n1` (configuration not stated) | 4.583% | -5.039% | 9.849% | -2.732% |
| `OC(CN1CCCc2cc(OC(F)F)ccc21)Cn1cccn1` (configuration not stated) | -5.211% | 2.494% | -0.6744% | 4.813% |
| `O=C(C1CCOCC1)N1CCc2ncnc(-c3ccccc3)c2CC1` | 6.995% | 9.559% | -1.208% | 7.463% |
| `COCC(=O)N1CCn2c(COc3cccnc3)cnc2C1C` (configuration not stated) | 5.533% | 9.611% | 7.192% | 1.22% |
| `CS(=O)(=O)N1C[C@@H]2OCC(=O)N(CC3CCC3)[C@@H]2C1` | 6.397% | 38.71% | -0.5271% | 7.921% |
| `CC(NCc1ccsc1)c1ccc2c(c1)NC(=O)CO2` (configuration not stated) | -1.218% | -4.247% | -6.591% | 4.734% |
| `COCCC1(C(=O)O)CCCN(Cc2cc3c(cc2C)OCO3)C1` (configuration not stated) | 2.375% | -28.22% | 0.6552% | 4.972% |
| `O=C(NCCCN1CCN(c2ncccn2)CC1)NCC1CCOC1` (configuration not stated) | 6.312% | -11.77% | 0.2793% | 0.5618% |
| `CCCOCC(=O)N1CCc2nc(NC)nc(C(=O)N3CCCC3)c2C1` | 5.151% | -3.28% | 4.888% | 9.045% |
| `O=C(CNc1cccc(S(=O)(=O)C(F)F)c1)NCc1ccco1` | 0.404% | 14.39% | 6.708% | 5.747% |
| `COCCSc1ccc(C(C)NC(=O)Nc2cccnc2)cc1` (configuration not stated) | 3.971% | -31.39% | -3.116% | 7.843% |
| `CCCc1nc(CNC(C)Cn2cccn2)cs1` (configuration not stated) | -0.8257% | -1.12% | -7.91% | 4.36% |
| `NC(=O)c1cc(C2CCCN(CCc3ccccn3)C2)n[nH]1` (configuration not stated) | -0.5392% | 0.9671% | 1.262% | 0% |
| `Cc1nc(CN2CCCC(N(C)CC(=O)Nc3cccnc3)C2)no1` (configuration not stated) | 1.883% | -23.73% | 3.011% | -0.8403% |
| `CCOc1ncccc1CNC(=O)NC(C)Cn1cccn1` (configuration not stated) | -1.16% | -35.52% | 8.164% | 2.26% |
| `CCCN(C(=O)c1cccnc1)c1nc2c(s1)CCc1c-2cnn1C` | 43.95% | 19.66% | - | 26.67% |
| `Cc1cc(C2CCC2)nc(N(C)Cc2cnccn2)n1` | 3.078% | -14.35% | -0.5435% | 3.093% |
| `CCn1nc(C)c(CCNC(=O)c2coc(CN3CCOCC3)c2)c1C` | 3.588% | -12.09% | -4.823% | 2.128% |
| `COc1ccc(CNCCc2cccc(C(N)=O)c2)cc1O` | 9.041% | -14.9% | 0.1271% | 10.34% |
| `CC(Oc1cc(Cl)cc(Cl)c1)C(=O)NCCOCC(N)=O` (configuration not stated) | -8.494% | 27.38% | 1.296% | 5.941% |
| `CCCC1C=CCN1C(=O)c1cc(COc2ccccc2)[nH]n1` (configuration not stated) | 2.398% | -44.01% | -1.723% | 2.488% |
| `Cc1nc(-c2noc3ccc(C(=O)NCCN4CCOCC4)cc23)co1` | 7.554% | - | -1.833% | 2.941% |
| `CN(C)[C@@H]1CN(Cc2cnn(C)c2)[C@@H]2COC[C@H]12` | -1.209% | -18.34% | 3.427% | 2.299% |
| `COc1ccc(C(C)N2CCC(C(=O)N(C)C)CC2)cc1Cl` (configuration not stated) | 2.251% | -36.91% | -0.08944% | 2.299% |
| `Cc1nc2c(N3CCN(Cc4ccccc4)CC3)nc(N)nc2n1C` | 2.713% | -14.35% | 0.89% | 11.92% |
| `CN(C)Cc1cc(=O)n2c(n1)CN(C(=O)Cc1cccs1)CCC2` | 6.319% | -24.16% | -2.441% | 5.882% |
| `CN(C)CCCC(=O)N1C[C@H]2CC[C@@H]1CN(Cc1ccccc1)C2` | 5.794% | -23.82% | -2.716% | 3.665% |
| `CC(C)c1nc(C2CCCN(c3ncccn3)C2)no1` (configuration not stated) | 5.445% | 14.56% | 3.159% | -1.02% |
| `COc1ccsc1C(=O)N1CCCC(n2cncn2)C1` (configuration not stated) | -0.1973% | -4.554% | -12.84% | 2.857% |

Repeated from the top, 4 entries:

structure	A	B	C	D
COCCNC(=O)NCCCOC1CCCc2ccccc21 (configuration not stated)	-1.46%	-29.17%	0.5236%	3.665%
Cc1noc(CNc2ccccc2N2CCCCC2)n1	-1.283%	-1.386%	-1.68%	-2.89%
CCN(C(C)=O)c1nc(CN2CCN(c3nccs3)CC2)cs1	-3.686%	-28.99%	-1.505%	-3.922%
CCCc1nc(C(=O)N2CCN(C(=O)OC)CC2)cs1	-3.461%	-1.307%	3.841%	6.627%